Assay results reported in publication doi:10.1101/2024.11.09.622756.
These are yes or no findings as the source states them, for the method shown. Some entries that bind do so weakly or less than the wild type. Where a sequence is shown, tags or fusion partners need not be part of it.

Target: T1, GpsB (bacterial two-hybrid fusion) (Streptococcus pneumoniae R6) (UniProt Q8DR57)
T1 sequence: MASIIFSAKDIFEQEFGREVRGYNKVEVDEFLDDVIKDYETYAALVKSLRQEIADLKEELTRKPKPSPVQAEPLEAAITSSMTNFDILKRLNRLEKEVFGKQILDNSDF
Experiment: two-hybrid

B1: PgdA (bacterial two-hybrid fusion) (enzyme, UniProt Q8DP63 1-463)
chain: MNKSRLGRGRHGKTRHVLLALIGILAISICLLGGFIAFKIYQQKSFEQKIESLKKEKDDQLSEGNQKEHFRQGQAEVIAYYPLQGEKVISSVRELINQDVKDKLESKDNLVFYYTEQEESGLKGVVNRNVTKQIYDLVAFKIEETEKTSLGKVHLTEDGQPFTLDQLFSDASKAKEQLIKELTSFIEDKKIEQDQSEQIVKNFSDQDLSAWNFDYKDSQIILYPSPVVENLEEIALPVSAFFDVIQSSYLLEKDAALYQSYFDKKHQKVVALTFDDGPNPATTPQVLETLAKYDIKATFFVLGKNVSGNEDLVKRIKSEGHVVGNHSWSHPILSQLSLDEAKKQITDTEDVLTKVLGSSSKLMRPPYGAITDDIRNSLDLSFIMWDVDSLDWKSKNEASILTEIQHQVANGSIVLMHDIHSPTVNALPRVIEYLKNQGYTFVTIPEMLNTRLKAHELYYSRDE
binding: binds
